In article PMC3386966 one finds binding data, which are given here for one substance.

Sequences of proteins named here, by UniProt entry; tags and fusion partners are left off. Residues count along the entry.
UniProt Q99523, residues 78-755: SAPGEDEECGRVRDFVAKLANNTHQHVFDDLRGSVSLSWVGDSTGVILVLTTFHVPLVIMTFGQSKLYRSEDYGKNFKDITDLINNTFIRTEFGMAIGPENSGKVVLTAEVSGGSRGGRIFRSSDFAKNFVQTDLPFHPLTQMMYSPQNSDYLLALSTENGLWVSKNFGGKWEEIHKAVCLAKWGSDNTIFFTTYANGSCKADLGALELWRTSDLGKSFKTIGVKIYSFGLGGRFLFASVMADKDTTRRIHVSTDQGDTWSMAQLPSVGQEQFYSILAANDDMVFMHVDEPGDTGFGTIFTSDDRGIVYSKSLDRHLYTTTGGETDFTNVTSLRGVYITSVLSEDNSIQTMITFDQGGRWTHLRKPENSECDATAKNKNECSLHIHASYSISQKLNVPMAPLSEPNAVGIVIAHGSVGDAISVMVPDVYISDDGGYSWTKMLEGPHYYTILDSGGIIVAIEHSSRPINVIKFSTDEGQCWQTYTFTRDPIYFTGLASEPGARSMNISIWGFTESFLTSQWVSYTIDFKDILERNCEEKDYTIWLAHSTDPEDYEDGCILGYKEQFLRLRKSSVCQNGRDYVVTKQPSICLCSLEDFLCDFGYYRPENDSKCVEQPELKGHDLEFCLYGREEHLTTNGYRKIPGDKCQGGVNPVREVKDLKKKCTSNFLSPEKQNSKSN
UniProt P11717, residues 41-1365: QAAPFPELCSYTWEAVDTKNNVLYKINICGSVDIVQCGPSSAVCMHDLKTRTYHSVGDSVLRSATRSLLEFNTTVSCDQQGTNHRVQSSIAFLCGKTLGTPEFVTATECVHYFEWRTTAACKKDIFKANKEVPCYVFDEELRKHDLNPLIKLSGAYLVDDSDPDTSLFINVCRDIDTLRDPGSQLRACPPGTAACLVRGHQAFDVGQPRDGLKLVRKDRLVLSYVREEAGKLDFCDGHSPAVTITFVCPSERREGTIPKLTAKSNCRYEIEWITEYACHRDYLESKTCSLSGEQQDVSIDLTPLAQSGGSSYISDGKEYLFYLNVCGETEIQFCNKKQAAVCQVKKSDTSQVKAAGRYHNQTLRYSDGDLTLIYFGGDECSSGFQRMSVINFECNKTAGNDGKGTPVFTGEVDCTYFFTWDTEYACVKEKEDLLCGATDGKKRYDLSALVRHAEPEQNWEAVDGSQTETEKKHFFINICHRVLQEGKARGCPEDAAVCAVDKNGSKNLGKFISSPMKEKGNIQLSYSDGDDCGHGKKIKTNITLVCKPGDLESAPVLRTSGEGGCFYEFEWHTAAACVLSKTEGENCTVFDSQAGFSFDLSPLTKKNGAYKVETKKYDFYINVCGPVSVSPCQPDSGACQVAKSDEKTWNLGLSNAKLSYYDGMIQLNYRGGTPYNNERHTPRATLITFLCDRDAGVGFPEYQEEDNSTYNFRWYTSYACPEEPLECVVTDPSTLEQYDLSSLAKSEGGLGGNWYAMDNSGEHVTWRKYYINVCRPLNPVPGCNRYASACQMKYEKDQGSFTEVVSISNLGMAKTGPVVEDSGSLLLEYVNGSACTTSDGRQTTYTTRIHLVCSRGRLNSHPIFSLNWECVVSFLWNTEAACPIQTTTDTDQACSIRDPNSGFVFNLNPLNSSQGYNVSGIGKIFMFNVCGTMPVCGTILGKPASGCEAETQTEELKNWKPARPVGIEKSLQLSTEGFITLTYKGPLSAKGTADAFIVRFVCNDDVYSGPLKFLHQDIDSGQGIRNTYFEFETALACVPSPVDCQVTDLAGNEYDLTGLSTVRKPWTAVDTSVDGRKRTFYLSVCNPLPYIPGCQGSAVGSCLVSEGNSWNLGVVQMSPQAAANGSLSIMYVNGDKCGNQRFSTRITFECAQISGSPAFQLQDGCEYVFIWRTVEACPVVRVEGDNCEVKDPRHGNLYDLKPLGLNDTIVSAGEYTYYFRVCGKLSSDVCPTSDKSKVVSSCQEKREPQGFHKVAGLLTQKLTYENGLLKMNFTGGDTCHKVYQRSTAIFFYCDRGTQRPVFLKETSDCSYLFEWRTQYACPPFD

No constants are given. Whether binding was seen depends on the method and setting. Some binding calls cover weakened binding; strength is not graded here.

This test has as its target Affinity purified soluble human sortilin (human) (UniProt Q99523). The experiment in a line: SPR; BIAcore CM5 chip; sortilin immobilized (72 to 75 fmol/mm^2); M6PR (41-1365aa) injected to saturation, or flow buffer, prior to injection of α-Gal A; both purified. On the technique in general: In SPR one partner is held on a chip, and binding of the other changes the refractive index at the surface.

Take “Recombinant human M6PR (6418-GR) containing the residues Gln41-Asp1365 (from UniProt P11717 41-1365) (domain or fragment)”: the binding result is recorded as “binds”.
